PubChem BioAssay AID504786 – Drosophila RNAi Screening Center | 2011
Purpose: 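Knock-downs reducing HIF reporter induction by the iron chelator DFO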 (primary screen). Cells: Drosophila S2 cells with a stable HIF luciferase reporter. Reagent: long dsRNA against Drosophila genes, about 0.2 µg dsRNA per well of a 384-well plate. Duration: three days of knock-down, then 20 h of DFO before reading. Treatment: desferrioxamine (DFO) at 100 µM, an iron chelator that mimics hypoxia, for 20 h. Detection: 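Firefly luciferase driven by the mouse ldh-a hypoxia-response element, measured after 20 h of 100 µM DFO; z-scores per plate, higher means more signal lost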. Direction: z-score: higher = stronger loss of HIF reporter signal.
In all, the deposit lists about 21,000 reagents; shown is a random part of those that have a named target and a result. 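Primary screen; positive scores mean lost reporter signal, so the sign may be inverted from the usual convention.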 Reagents against one gene are numbered here. A plus sign joins genes that one reagent is predicted to hit. Not all columns of the deposit are shown.

z-score, replicate 1, by gene and reagent
tant: #1 -0.3
EndoGI: #1 -0.2
noi: #1 3.3
CG3634: #1 0
capu: #1 -0.2; #2 -0.3; #3 -0.4; #4 -0.3
Sgs1: #1 -0.2; #2 -0.5
RhoGEF64C: #1 -0.3; #2 -0.2
CG42534: #1 -0.3; #2 -0.1; #3 -0.5
SrpRalpha: #1 -0.2
CG7252: #1 -0.3
Zasp67: #1 0
p120ctn: #1 -0.3
Arfip: #1 0.1
CG13071: #1 -0.4
aop: #1 0.9
CG8476: #1 0
CG5033: #1 -0.2
Chd1: #1 -0.3
RhoGAP5A: #1 -0.4
CG31807: #1 -0.1
CG15147: #1 -0.2; #2 -0.2
CG42299 + CG42300: #1 -0.3; #2 -0.3
Rbfox1: #1 -0.4; #2 -0.3; #3 1.2
Ndg: #1 -0.3
CG14490: #1 -0.2
CG17109: #1 -0.5
CG7236: #1 -0.2
Kif19A: #1 1.6
bon: #1 -0.7
jbug: #1 0.1; #2 -0.2; #3 -0.2; #4 -0.3
Alp2: #1 -0.2
fos28F (retired record): #1 -0.3
CG15011: #1 -0.2
RhoGAP100F: #1 -0.2
CG31709: #1 -0.3
CG4593: #1 -0.3

A few values from above:
Rbfox1 #1, z-score, replicate 1 → -0.4
Value for jbug #4 in “z-score, replicate 1”: -0.3
Value of Rbfox1 #3 in “z-score, replicate 1”: 1.2
Result for capu #3 under “z-score, replicate 1”: -0.4
RhoGAP5A, z-score, replicate 1 → -0.4
CG8476, z-score, replicate 1 → 0

Further results:
z-score, replicate 1, by gene and reagent
CG3408: #1 -0.3
Fili: #1 0.4; #2 -0.3; #3 -0.3
PNUTS: #1 -0.3
Vha44: #1 0; #2 -0.3
FASN2: #1 -0.3; #2 -0.4
CG33017: #1 -0.3; #2 -0.4
rho-7: #1 -0.5
jim: #1 -0.3
CG34328: #1 -0.1
NT1: #1 -0.3
GstD2: #1 -0.1
CG15543: #1 0
CG14135: #1 -0.1
CG2116: #1 -0.2
mRpS18A: #1 1.5
Osi22: #1 -0.4
CG4594: #1 -0.2
Cox10: #1 0.3
CG32547: #1 0.1; #2 -0.2; #3 -0.4; #4 0.8
Mal-A3: #1 0.4
slx1: #1 -0.2
CG16734: #1 0.3
Jhbp2: #1 -0.1
CG34297: #1 -0.3
frm: #1 -0.3
CG9101: #1 0
T3dh + pgc: #1 -0.4
mthl6: #1 -0.1
CG42749: #1 -0.3; #2 -0.3
Mal-B2: #1 -0.8
CG16826: #1 -0.1
CG15472: #1 -0.2
z: #1 2.2
CG1416: #1 0.3
obst-H: #1 -0.1; #2 -0.2
CG14230: #1 0.3
CG15888: #1 -0.4
GlcAT-P: #1 -0.2; #2 0.3
CG16762: #1 -0.1
CG12746: #1 -0.4
Hmt4-20: #1 4.6
Sec23: #1 -0.5
CG7264: #1 -0.1
CG18764: #1 -0.1
Vps36: #1 -0.1
